Experimental data as given in patent publication US5478809A (Takeda Chemical Industries, Ltd., priority 1992, dated 1995).

Assay: general procedure: solution-phase peptide synthesis; DEPC/triethylamine; HONB/DCC; HONB/DIC; HOBT/DIC
[1] = late stage modification step, hydrochloride

Work on “(2R,6R)-N^δ -(2-Pam-amino-6,7-bis(PamO)-4-THT)-Orn-Gly-Gly-Glu-OH hydrochloride” yielded a step yield [1] of 96%.

Substance “Pam-Dhc(Pam)2 -Gly-Gly-Gly-Glu-Thr-Thr-OH” has a step yield (late stage modification step) of 98%.

For “Pam-Dhc(Pam)2 -Gly-Gly-Gly-Glu(O^t Bu)-Thr(^t Bu)-Thr(^t Bu)-O^t Bu”, the step yield (lipidation step) was 70%.

Substance “H-Dhc(Pam)2 -Gly-Gly-Gly-Glu(O^t Bu)-Thr(^t Bu)-Thr(^t Bu)-O^t Bu” has a step yield (late stage modification step) of 90%.

For “N^α -Boc-Orn-Gly-Gly-Glu(O^t Bu)-O^t Bu hydrochloride”, the step yield [1] was 86%.

Work on “Fmoc-Dhc(Pam)2 -Gly-Gly-Gly-Glu(O^t Bu)-Thr(^t Bu)-Thr(^t Bu)-O^t Bu” yielded a step yield (coupling step) of 97%.

With “(2R,6S)-2-Myr-amino-6,7-bis(PamO)-4-THT-Gly-Gly-Gly-Glu(O^t Bu)-Thr(^t Bu)-Thr(^t Bu)-O^t Bu” the step yield (lipidation step) was “yield 89%”.

Substance “N^δ -Z--N^α -Boc-Orn-Gly-Gly-Glu(O^t Bu)-O^t Bu” has a step yield (coupling step) of 100%.

In the case of “(2R,6R)-2-Myr-amino-6,7-bis(PamO)-4-THT-Glu(O^t Bu)-Gly-D-Glu(O^t Bu)-O^t Bu”, the step yield (coupling step) is reported as “yield 93%”.

Substance “(2R,6R)-N^δ -(2-Pam-amino-6,7-bis(PamO)-4-THT)-N^α -Boc-Orn-Gly-Gly-Glu(O^t Bu)-O^t Bu” has a step yield (lipidation step) of 65%.

In the case of “(2R,6S)-2-Myr-amino-6,7-bis(PamO)-4-THT-Gly-Gly-Gly-Glu-Thr-Thr-OH”, the step yield (late stage modification step) is reported as “yield 99%”.
